Some entries share one result that the patent states for a list of compounds. At least one structure is not confirmed: it was looked up by name or label, or the drawing left a doubt.
Test system: CC49-TCO pretargeted LS174T colon carcinoma xenografts
Test: Pretargeted blocking assay with [111In]Q (Example 140)
Assay type: in vivo, BALB/c mice
Conditions: unlabeled Tz i.v. 72 h after CC49-TCO and 1 h before [111In]Q; change in tumor uptake 22 h p.i., normalized to unblocked group
Method: All animal studies were approved by the Danish Animal Welfare Council, ministry of Justice. Five weeks old female nude BALB/c mice (Charles River, Sulzfeld, Germany) were allowed to acclimatize for one week with access to water and chow ad libitum. Human colon cancer cell line (LS174T; obtained from ATCC) was cultured in minimum essential medium (MEM) supplemented with 10% fetal bovine serum, 1% L-Glutamine, 1% Sodium pyruvate, 1% non-essential amino acids, and 1% penicillin-streptomycin at 37° C. and 5% CO2. […] Tumors were measured using a caliper and the volume calculated using the formula volume=½(length×width^2). […]
The TCO-modification of CC49 was carried out according to Rossin et al. To study the in vivo ligation performance of Tz-derivatives 1a-45a, BALB/c mice bearing LS174T colon carcinoma xenografts were injected intravenously (i.v.) with CC49-TCO 72 h prior to i.v. injection of the unlabeled Tz, followed by administration of [^111In]Q 1 h later. The animals were euthanized after 22 h and an ex vivo biodistribution was carried out to quantify the tumor uptake of [111 In]Q (FIG. 15). […] A group of CC49-TCO pretreated mice were injected exclusively with [^111In]Q (without blocking) and the determined uptake was used as reference value (100%) to normalize the observed changes in tumor uptake in blocking experiments. […]

With `O=C(O)CN1CCN(CC(=O)O)CCN(CC(=O)NCCOCCOCCOCCOCCOCCOCCOCCOCCOCCOCCOCCNC(=O)CCCC(=O)Nc2ccc(-c3nnc(-c4ccccn4)nn3)nc2)CCN(CC(=O)O)CC1` [Q, reference compound] the Blocking effect was 95-99%.
